± gives the uncertainty stated by the source. Many of these values have a large error.
Experiment: self-splicing fitness, log relative to wild type (ln ratio); higher = more splicing; Tetrahymena group I intron in knt gene, E. coli kanamycin selection, DiMSum; sequences stand for … in CUCUCU…GGAGGGAAAAGUUAUCAGGCAUGCACCUGGUAGCUAGUCUUUAAACCAAUAGAUUGCAUCGGUUUAAAAGGCAAGACCGUCAAAUUGCGGGAAAGGGGUCAACAGCCGUUCAGUACCAAGUCUCAGGGGAAACUUUGAGAUGGCCUUGCAAAGGGUAUGGUAAUAAGCUGACGGACAUGGUCCUAACCACGCAGCCAAGUCCUAAGUCAACAGAUCUUCUGUUGAUAUGGAUGCAGUUCACAGACUAAAUGUCGGUCGGGGAAGAUGUAUUCUUCUCAUAAGAUAUAGUCGGACCUCUCCUUAAUGGGAGCUAGCGGAUGAAGUGAUGCAACACUGGAGCCGCUGGGAACUAAUUUGUAUGCGAAAGUAUAUUGAUUAGUUUUGGAGUACUCGUGGUCG
How it was run: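 Fitness was computed with DiMSum as the error-weighted combination of replicate fold changes, kanamycin versus none, each normalised to wild type. The library randomised all eight intron nucleotides of the P1ex region, with the intron placed in the knt kanamycin-resistance gene on pET-22b(+) in E. coli BL21(DE3). Six replicate transformations were grown overnight at 37°C or 30°C on LB agar with or without 25 μg/mL kanamycin, plus 100 μg/mL carbenicillin, 50 μM IPTG and 0.2% rhamnose. Pooled colonies were amplicon-sequenced on an Illumina HiSeq 2500.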

UCAGAGCAAUAUUACGGACU
self-splicing fitness (ln) (30 °C): -3.92 ± 0.53

AGCCAGCAAUAUUACGAUCA
self-splicing fitness (ln) (30 °C): -5.04 ± 0.72

GGUUAGCAAUAUUACGGGGG
self-splicing fitness (ln) (30 °C): -3.7 ± 1.1

GGUGAGCAAUAUUACGUGCG
self-splicing fitness (ln) (30 °C): -0.62 ± 0.12 | self-splicing fitness (ln) (37 °C): -0.505 ± 0.18

CCGCAGCAAUAUUACGCUGC
self-splicing fitness (ln) (30 °C): -4.56 ± 0.59 | self-splicing fitness (ln) (37 °C): -2.89 ± 1.1

UCAGAGCAAUAUUACGCAGG
self-splicing fitness (ln) (30 °C): -5.53 ± 1

CGUGAGCAAUAUUACGAGCC
self-splicing fitness (ln) (30 °C): -2.18 ± 0.62

GUUUAGCAAUAUUACGAAGC
self-splicing fitness (ln) (30 °C): -4.07 ± 0.52

GAGGAGCAAUAUUACGGAAG
self-splicing fitness (ln) (30 °C): -3.92 ± 1 | self-splicing fitness (ln) (37 °C): -1.26 ± 0.62

GUCGAGCAAUAUUACGCGGU
self-splicing fitness (ln) (30 °C): -4.21 ± 0.51

AGAGAGCAAUAUUACGUGCC
self-splicing fitness (ln) (30 °C): -2.63 ± 0.56 | self-splicing fitness (ln) (37 °C): -3.27 ± 1

UCCGAGCAAUAUUACGUUAU
self-splicing fitness (ln) (30 °C): -3.95 ± 0.21 | self-splicing fitness (ln) (37 °C): -1.93 ± 0.19

CAGUAGCAAUAUUACGCCUU
self-splicing fitness (ln) (37 °C): -0.187 ± 0.56

GAGUAGCAAUAUUACGCUGA
self-splicing fitness (ln) (30 °C): -2.52 ± 0.8

CAUAAGCAAUAUUACGGAGA
self-splicing fitness (ln) (30 °C): -5.07 ± 0.51

GGUCAGCAAUAUUACGUCAC
self-splicing fitness (ln) (30 °C): -2.8 ± 0.51

CUGUAGCAAUAUUACGAGUA
self-splicing fitness (ln) (30 °C): -3.34 ± 1 | self-splicing fitness (ln) (37 °C): -4.15 ± 1

AGGGAGCAAUAUUACGCUCC
self-splicing fitness (ln) (30 °C): -1.12 ± 0.76 | self-splicing fitness (ln) (37 °C): -1.64 ± 0.69

UCCUAGCAAUAUUACGAAUU
self-splicing fitness (ln) (30 °C): -4.17 ± 0.73 | self-splicing fitness (ln) (37 °C): -2.08 ± 0.56

UUUGAGCAAUAUUACGGACC
self-splicing fitness (ln) (30 °C): -4.04 ± 1.1 | self-splicing fitness (ln) (37 °C): -2.2 ± 0.79

GCACAGCAAUAUUACGCGCC
self-splicing fitness (ln) (37 °C): -2.33 ± 0.56

AUGUAGCAAUAUUACGCCGC
self-splicing fitness (ln) (30 °C): -2.4 ± 0.56 | self-splicing fitness (ln) (37 °C): -1.69 ± 1.2

AAUAAGCAAUAUUACGAAGC
self-splicing fitness (ln) (37 °C): -2.59 ± 0.54

AGAAAGCAAUAUUACGCAUC
self-splicing fitness (ln) (37 °C): -1.47 ± 0.54

AGGGAGCAAUAUUACGCCCC
self-splicing fitness (ln) (37 °C): 0.417 ± 1.2

GUGUAGCAAUAUUACGUUCC
self-splicing fitness (ln) (30 °C): -3.23 ± 1 | self-splicing fitness (ln) (37 °C): 0.694 ± 1.1

AUAUAGCAAUAUUACGCGAA
self-splicing fitness (ln) (30 °C): -4.02 ± 0.52

CUGUAGCAAUAUUACGCCAG
self-splicing fitness (ln) (30 °C): -2.6 ± 0.78 | self-splicing fitness (ln) (37 °C): -1.71 ± 0.59

UUCAAGCAAUAUUACGAUUU
self-splicing fitness (ln) (30 °C): -3.24 ± 0.21 | self-splicing fitness (ln) (37 °C): -1.12 ± 0.17

GGGGAGCAAUAUUACGCGAU
self-splicing fitness (ln) (30 °C): -3.26 ± 1

ACAGAGCAAUAUUACGCGCU
self-splicing fitness (ln) (30 °C): -4.63 ± 0.71

CCCAAGCAAUAUUACGGAGG
self-splicing fitness (ln) (37 °C): -2.96 ± 0.53

AGUCAGCAAUAUUACGAAAC
self-splicing fitness (ln) (30 °C): -3.71 ± 0.73

GACAAGCAAUAUUACGUCCC
self-splicing fitness (ln) (30 °C): -2.39 ± 0.56 | self-splicing fitness (ln) (37 °C): -0.711 ± 0.64

UUUUAGCAAUAUUACGCUAA
self-splicing fitness (ln) (30 °C): -2.25 ± 1.1 | self-splicing fitness (ln) (37 °C): -2.55 ± 0.63

CGUGAGCAAUAUUACGCAGG
self-splicing fitness (ln) (30 °C): -1.54 ± 0.11 | self-splicing fitness (ln) (37 °C): -2.14 ± 0.15

AAAUAGCAAUAUUACGAAGA
self-splicing fitness (ln) (30 °C): -2.26 ± 0.26 | self-splicing fitness (ln) (37 °C): -1.1 ± 0.17

GUUUAGCAAUAUUACGCCCC
self-splicing fitness (ln) (30 °C): 0.285 ± 1.1 | self-splicing fitness (ln) (37 °C): -0.44 ± 1

UAGUAGCAAUAUUACGAGCU
self-splicing fitness (ln) (30 °C): -3.48 ± 1.1

UCAUAGCAAUAUUACGCACG
self-splicing fitness (ln) (30 °C): -2.05 ± 0.11 | self-splicing fitness (ln) (37 °C): -0.462 ± 0.13

UUUUAGCAAUAUUACGAAAC
self-splicing fitness (ln) (30 °C): -3.34 ± 0.78

GUAAAGCAAUAUUACGGCGU
self-splicing fitness (ln) (30 °C): -0.369 ± 0.069 | self-splicing fitness (ln) (37 °C): 0.409 ± 0.11

CUCCAGCAAUAUUACGCUCC
self-splicing fitness (ln) (37 °C): -2.2 ± 1.1

UUCAAGCAAUAUUACGCCCC
self-splicing fitness (ln) (30 °C): -1.13 ± 0.61 | self-splicing fitness (ln) (37 °C): -1.29 ± 1.2

GCGCAGCAAUAUUACGUGGA
self-splicing fitness (ln) (30 °C): -1.48 ± 0.098 | self-splicing fitness (ln) (37 °C): -0.745 ± 0.098

CUGUAGCAAUAUUACGUUGC
self-splicing fitness (ln) (37 °C): -2.59 ± 0.77

AUUGAGCAAUAUUACGGUAC
self-splicing fitness (ln) (30 °C): -4.85 ± 0.72

GUCUAGCAAUAUUACGAGGU
self-splicing fitness (ln) (30 °C): -4.1 ± 1

UCGCAGCAAUAUUACGGGCC
self-splicing fitness (ln) (30 °C): -2.06 ± 0.57 | self-splicing fitness (ln) (37 °C): -2.07 ± 1.1

UCGGAGCAAUAUUACGCUGC
self-splicing fitness (ln) (37 °C): -2.89 ± 0.6

CUAAAGCAAUAUUACGUCGG
self-splicing fitness (ln) (30 °C): -0.261 ± 0.061 | self-splicing fitness (ln) (37 °C): -0.189 ± 0.078

UUAUAGCAAUAUUACGCCAA
self-splicing fitness (ln) (30 °C): -1.84 ± 0.54

CUAGAGCAAUAUUACGAACU
self-splicing fitness (ln) (30 °C): -1.73 ± 0.91

GAGGAGCAAUAUUACGAAUC
self-splicing fitness (ln) (37 °C): -0.826 ± 0.81

CAUUAGCAAUAUUACGUCAC
self-splicing fitness (ln) (30 °C): -4.63 ± 0.58

GGAGAGCAAUAUUACGAUCU
self-splicing fitness (ln) (30 °C): -6.03 ± 1

GGAGAGCAAUAUUACGUAAA
self-splicing fitness (ln) (30 °C): -3.69 ± 0.53

CUUUAGCAAUAUUACGACCA
self-splicing fitness (ln) (30 °C): -2.33 ± 0.56 | self-splicing fitness (ln) (37 °C): -2.16 ± 1.1

GCAGAGCAAUAUUACGGCCU
self-splicing fitness (ln) (30 °C): -2.37 ± 0.78

AUCGAGCAAUAUUACGCUAC
self-splicing fitness (ln) (30 °C): -4.08 ± 0.52

GGUGAGCAAUAUUACGCGAU
self-splicing fitness (ln) (37 °C): -2.56 ± 0.53

AUAUAGCAAUAUUACGAAUA
self-splicing fitness (ln) (37 °C): -2.27 ± 0.66

UAUGAGCAAUAUUACGCUAC
self-splicing fitness (ln) (30 °C): -2.79 ± 0.2 | self-splicing fitness (ln) (37 °C): -2.25 ± 0.43

AUGUAGCAAUAUUACGGAAG
self-splicing fitness (ln) (30 °C): -3.96 ± 0.59

AACGAGCAAUAUUACGAGUC
self-splicing fitness (ln) (30 °C): -4 ± 0.74

AGGAAGCAAUAUUACGGCCC
self-splicing fitness (ln) (30 °C): -1.85 ± 0.88

CUGAAGCAAUAUUACGCCUC
self-splicing fitness (ln) (37 °C): -2.55 ± 0.63

UGUAAGCAAUAUUACGUACA
self-splicing fitness (ln) (30 °C): -0.772 ± 0.098 | self-splicing fitness (ln) (37 °C): -0.557 ± 0.16

GAGGAGCAAUAUUACGCUAG
self-splicing fitness (ln) (30 °C): -4.45 ± 0.73

GGAGAGCAAUAUUACGAGCC
self-splicing fitness (ln) (37 °C): -2.29 ± 1.1

AGGAAGCAAUAUUACGUCCC
self-splicing fitness (ln) (30 °C): -3.58 ± 1 | self-splicing fitness (ln) (37 °C): -1.96 ± 0.66

GCGGAGCAAUAUUACGAAAA
self-splicing fitness (ln) (30 °C): -0.135 ± 0.71 | self-splicing fitness (ln) (37 °C): -2.36 ± 0.64

CCACAGCAAUAUUACGAGCC
self-splicing fitness (ln) (30 °C): -3.22 ± 0.42 | self-splicing fitness (ln) (37 °C): -2.3 ± 0.31

— the supplement of paper PMC7877785
